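Genome-wide siRNA knockdown in TC32 Ewing sarcoma cells, comparing luciferase light from an NR0B1-promoter reporter with a CMV-promoter reporter 48 hours after transfection. Each siRNA was applied at 20 nM. A z-score of the log NR0B1-over-CMV signal, less the median of siRNAs with the same seed; more negative means a stronger specific loss of the NR0B1 reporter.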

The strongest results of the screen are mostly left out here. Sequences are the guide (antisense) strand, without overhang.

- AUCACGUCGGUGAUCCUCC against CTRB1 | seed-corrected z-score -0.1471
- UCUGUCUCCACUGAACCAG against RNF175 | seed-corrected z-score 0.2041
- UUCGCUUCUGGAUAAGUAC against PREPL | seed-corrected z-score 0.317
- UGUGGAAUCAACUUCGACA against KIAA1522 | seed-corrected z-score -0.2339
- UAUCUUCCCAAUCGUCUCC against ZNF622 | seed-corrected z-score 0.128
- UCCGAUUUGAUGGUUACAC against NCOA1 | seed-corrected z-score 0.4111
- AAAAUUGAUCUGUCCGUUC against PTGES3P3 | seed-corrected z-score 0.02482
- ACUGUGAUGAGAAUCCUGG against OR2T6 | seed-corrected z-score 2.337
- UCAAUGUUGCUAAACAAGC against ARHGEF38 | seed-corrected z-score -0.1541
- AUUUGGACAAGUGAUCCUC against IL1RAP | seed-corrected z-score 0.3913
- AUGGGAAAAACCUCAGAUG against LINC00381 | seed-corrected z-score -1.29
- UCUUCAAAGAGAGCUAGUG against C11orf86 | seed-corrected z-score 1.234
- UUUCAGGUAAAACACCUUG against YWHAH | seed-corrected z-score -0.4096
- AAAAAGGCCGAAACUGUGG against KBTBD6 | seed-corrected z-score 1.538
- AAUGGGAAGUGCACACUGC against ANKRD53 | seed-corrected z-score -0.5635
- UUCACAAUCUCAUCGGCGG against TKFC | seed-corrected z-score 0.3662
- AGGAAUAUUAGAGACAUGC against RBFOX2 | seed-corrected z-score -0.2431
- UUCUUCUACAGUUUUCUCA against CCDC53 | seed-corrected z-score -0.09462
- ACUGUGUUGGGUAGGGUGC against JPX | seed-corrected z-score 0.5869
- UACAGAACUCGUGUCACUC against TEX264 | seed-corrected z-score -0.1249
- UAGCGAGUGAGGAGGAUGC against TIMM17B | seed-corrected z-score -0.6797
- UUUCUCACCAAAAAUGUCC against PKIB | seed-corrected z-score 1.817
- ACCGGUACAAAUAAGAGAG against VEGFA | seed-corrected z-score -0.4906
- UACGUGAUGGAAUACGUGG against EPB41L4A | seed-corrected z-score 0.3826
- UCUUGGACACUUGGGAGCU against GIMAP1 | seed-corrected z-score -0.162
- AUAUGAAACACUUUAUUCG against NIPSNAP3B | seed-corrected z-score -0.2587
- UACUGGGACACCAUAGGCC against CDK10 | seed-corrected z-score 0.5857

Some entries from above, unchanged:

UCUUCAAAGAGAGCUAGUG against C11orf86 gave seed-corrected z-score 1.234.
UUCACAAUCUCAUCGGCGG against TKFC gave seed-corrected z-score 0.3662.

From PubChem BioAssay record AID1159506 (NCATS, 2015).